Reference: patent publication US4665085A, “Amidines, preparation process and therapeutical application thereof” (Laboratoires Chauvin-Blache, priority 1983, dated 1987)
At least one structure is not confirmed: it was looked up by name or label, or the drawing left a doubt.

Tested on: male New-Zealand rabbits
Assay: Hypotensive activity in rabbits after topical administration (intraocular pressure)
Format: in vivo
Conditions: rabbit, same experimental conditions (topical instillation)
Description: 2. Hypotensive activity in rabbits, after topical administration
The experiments were conducted using male New-Zealand rabbits (2 kg body weight) given "ad libitum" food and drink.
The animals are given a few days to get accustomed to the animal house, are conditioned to stabling in restraining boxes, and to the ocular pressure determinations, in order to prevent pressure deviations induced by stress and handling.
The intraocular pressure is determined with an ALCON aplanation pneumatonograph, standardized by means of an isolated cornea of rabbit, under water pressure.
The compounds are tested in isotonic aqueous solution, at pH 7.25 μl of an 0.5% solution are instilled in an eye, and the intraocular pressure is determined as a function of time.
Table below gives the maximum decrease of the intraocular pressure (Δ max) with respect to the basic value at time zero (time of instillation), the time corresponding to this maximum effect (t), and the total duration of the effect.

Clc1cccc(Cl)c1C=NNC1=NCCN1 [(2,6-dichlorobenzylidene-hydrazino)-2-imidazoline, reference compound]
effect on intraocular pressure in the treated eye: induce a hypertension in the treated eye
